Reference: article PMC4838387, “PolDIP2 interacts with human PrimPol and enhances its DNA polymerase activities”
These are yes or no findings as the source states them, for the method shown. A result given as binding can be weak or reduced; the word gives no strength.

By UniProt entry, the sequences of proteins in these tests, tags left out. Where a name states a change or a piece, a line headed by the entry shows the natural chain unless it says otherwise.
UniProt Q9Y2S7: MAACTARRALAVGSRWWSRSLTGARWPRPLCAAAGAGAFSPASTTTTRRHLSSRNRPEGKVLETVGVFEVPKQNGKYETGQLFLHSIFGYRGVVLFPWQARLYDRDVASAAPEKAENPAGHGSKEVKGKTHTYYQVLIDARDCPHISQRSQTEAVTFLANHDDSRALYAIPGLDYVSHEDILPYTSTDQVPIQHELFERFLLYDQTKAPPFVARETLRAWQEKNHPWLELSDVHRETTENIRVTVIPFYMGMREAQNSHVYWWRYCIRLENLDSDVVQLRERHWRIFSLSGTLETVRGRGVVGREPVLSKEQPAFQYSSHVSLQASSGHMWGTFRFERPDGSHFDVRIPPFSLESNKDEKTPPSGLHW

What was measured:
PrimPol^24–354 (human) [1] = molecular target: T1, PrimPol^24–354 (human) (UniProt Q96LW4); assay: cross-linking; BS3 cross-linker (1:1 to 20:1 crosslinker:protein) on equimolar untagged PolDIP2 and PrimPol 24-354, 50 mM HEPES pH 7.5, 150 mM NaCl, 10% glycerol, on ice; band of the weight of a 1:1 complex excised, digested, nano-LC-MS, StavroX; both purified
T1 sequence: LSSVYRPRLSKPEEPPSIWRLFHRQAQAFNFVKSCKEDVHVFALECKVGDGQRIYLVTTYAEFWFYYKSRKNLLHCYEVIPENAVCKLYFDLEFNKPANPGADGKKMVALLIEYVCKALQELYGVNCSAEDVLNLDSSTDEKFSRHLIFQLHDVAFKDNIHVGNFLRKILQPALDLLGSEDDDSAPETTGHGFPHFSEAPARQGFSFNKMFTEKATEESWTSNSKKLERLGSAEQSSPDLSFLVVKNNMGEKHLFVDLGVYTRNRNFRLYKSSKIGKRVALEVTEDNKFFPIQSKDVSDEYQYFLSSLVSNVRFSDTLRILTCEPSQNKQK

PrimPol^24–354 (human) [2] = molecular target: T1, PrimPol^24–354 (human); assay: native gel or EMSA; 20 nM labelled 20/97-mer primer/template DNA, 10 mM Bis-Tris-propane-HCl pH 7.0, 10 mM MgCl2, 100 µM DTT; 5% native polyacrylamide gel; complex seen on the DNA (super-shifted complex); both purified

binding (PrimPol^24–354 (human) [1]): binds
binding (PrimPol^24–354 (human) [2]): binds
Substance: untagged PolDIP2 (polymerase δ-interacting protein 2) (from UniProt Q9Y2S7)
